Measured values taken from PubChem BioAssay AID1487 (National Center for Advancing Translational Sciences (NCATS), 2009).
This is one part of the list. These are further read-outs of the screen, such as a control signal, another cell line or another target. No call is given for them. The list favours compounds with an active or inconclusive main result. Potencies come from curve fits of mixed quality, noted in brackets.

Test: qHTS Assay for Modulators of Lamin A Splicing
Conditions: HeLa LMNA splicing GFP/RFP minigene ratio, 48 h
Procedure, shortened: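 S3 HeLa cells stably expressing lamin A-EGFP splicing minigene plus DsRed2, 600 cells/well, 48 h compound exposure at 37C. Laser-scanning cytometry; analysed as GFP (500-530 nm)/RFP (575-640 nm) total intensity ratio; 0.5% DMSO vehicle.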

[1] = measured here: RFP viability control channel
[2] = measured here: GFP splicing reporter channel

| SMILES | AC50 [1] | AC50 [2] |
| --- | --- | --- |
| CCOc1ccc(NC(=O)c2c(NCc3cccs3)sc3c2CCC(C)C3)cc1 (stereo unspecified) | 31.6 µM [rising, single point] | – |
| COCCn1c(SCC(=O)N2CCc3ccccc3C2)nc2cc(Cl)ccc2c1=O | – | 5.62 µM [rising, partial curve] |
| Cc1cc(NC(=O)c2ccc(N3CCCC3)c([N+](=O)[O-])c2)no1 | 20 µM [rising, single point] | – |
| CN(n1cnc2ccccc2c1=O)S(C)(=O)=O | – | 0.112 µM [falling, full curve] |
| COc1ccc(NC(=O)Nc2cc(C(=O)NCc3ccc(C)cc3)ccc2N2CCCC2)cc1 | 7.08 µM [rising, partial curve] | 2.82 µM [rising, full curve] |
| CCC/C(O)=C1\C(=O)CC(C)(C)CC1=Nc1ccccc1O | 35.5 µM [falling, partial curve] | 35.5 µM [falling, partial curve, poor fit] |
| COc1ccccc1N(C(=O)c1cncc(Br)c1)c1nc(-c2ccc(C)cc2)cs1 | 10 µM [rising, partial curve] | 11.2 µM [rising, partial curve] |
| O=C1CC(c2ccccc2)CN1C(=O)c1cccnc1 (stereo unspecified) | 0.00562 µM [falling, full curve, poor fit] | – |
| Cc1cccc(NC(=S)N(CCCN2CCOCC2)Cc2ccccn2)c1 | 0.178 µM [rising, full curve, poor fit] | – |
| O=C(NCc1ccc(OC(F)(F)F)cc1)C1CC(c2c(Cl)cccc2Cl)=NO1 (stereo unspecified) | 17.8 µM [rising, single point] | 14.1 µM [rising, single point] |
| COC(=O)C1=C(N)Oc2cc(C)n(CCN3CCOCC3)c(=O)c2C1c1cccnc1 (stereo unspecified) | 0.251 µM [falling, full curve] | – |
| CN(C)S(=O)(=O)c1ccc(C(=O)Nc2nc(-c3cc4ccccc4o3)cs2)cc1 | 2.82 µM [rising, full curve] | 3.55 µM [rising, partial curve] |
| S=C(NCc1ccc(Cl)cc1)Nc1ccccc1 | – | 31.6 µM [rising, single point] |
| Cc1ccc(-n2ncc3c(=O)[nH]c(SCC(=O)N4CCOCC4)nc32)cc1 | 1.58 µM [rising, partial curve, poor fit] | – |
| Cn1cccc1/C=N/NC(=O)c1cc(-c2cccs2)nc2ccccc12 | 22.4 µM [rising, single point] | 35.5 µM [rising, single point] |
| CCCCCCN(C(=O)CCCCCN1C(=O)NC(c2ccc(-c3ccccc3)cc2)C(C(=O)OCc2ccccc2)=C1C)C(C)C(=O)NCCCC (stereo unspecified) | 14.1 µM [rising, partial curve] | – |
| COc1ccc(N2CC(NC(=O)N3CCN(c4ccccc4)CC3)CC2=O)cc1 (stereo unspecified) | – | 0.01 µM [rising, full curve, poor fit] |
| Cc1cc(Nc2cccc(Cl)c2)nc2ccc(NC(=O)COc3ccc(Cl)cc3)cc12 | 25.1 µM [falling, single point] | 25.1 µM [falling, single point] |
| CCCOC(=O)c1cccc(NC(=O)COc2ccc([N+](=O)[O-])cc2)c1 | 22.4 µM [rising, partial curve] | – |
| CCc1cccc2c(N=O)c(O)[nH]c12 | 35.5 µM [rising, single point] | – |
| CCOC(=O)C1=C2SCCN2C(=O)C(C#N)C1(C)C (stereo unspecified) | 0.01 µM [falling, full curve, poor fit] | – |
| CNC(=S)N(Cc1cccs1)Cc1cc2ccc(OC)cc2[nH]c1=O | 20 µM [rising, partial curve, poor fit] | 22.4 µM [rising, single point] |
| Cn1c(=O)c2[nH]c(-c3ccccc3Cl)c(O)c2n(C)c1=O | 7.94 µM [falling, partial curve] | – |
| COc1cccc(Nc2nnc(SCC(=O)N(CC(C)C)CC(C)C)s2)c1 | 14.1 µM [rising, single point] | 11.2 µM [rising, single point] |
| Cc1cc(C)c(NC(=O)CSc2nc3c(c(=O)n2C)SC(C)C3)c(C)c1 (stereo unspecified) | 5.01 µM [rising, partial curve] | – |
| COc1ccccc1NS(=O)(=O)c1cn(C)c(C)n1 | – | 89.1 µM [falling, partial curve] |
| CCc1ccc(-c2ccc(SCC(=O)Nc3nnc(C)s3)nn2)cc1 | 1.41 µM [falling, full curve, poor fit] | 10 µM [falling, partial curve, poor fit] |

| SMILES | AC50 [1] | AC50 [2] |
| --- | --- | --- |
| O=[N+]([O-])c1ccc(N/N=C2\CC3CC=CC23)c([N+](=O)[O-])c1 (stereo unspecified) | 8.91 µM [rising, partial curve] | 7.94 µM [rising, partial curve, poor fit] |
| Cc1c(C(C)C)c(=O)n(-c2ccccc2)n1C | – | 0.141 µM [falling, full curve, poor fit] |
| CCCNC(=O)Nc1nc(CC(=O)OCC)cs1 | 0.224 µM [falling, full curve, poor fit] | 0.178 µM [falling, full curve, poor fit] |
| O=C(CCn1ccc2ccccc21)Nc1ccc(N2CCOCC2)cc1 | 0.398 µM [falling, partial curve] | 0.501 µM [falling, partial curve] |
| CC(C)Nc1ncnc2c1cnn2-c1ccccc1 | 12.6 µM [rising, partial curve] | – |
| CCOC(=O)c1cnc(SCC(=O)Nc2cc(OC)cc(OC)c2)nc1N | 10 µM [rising, partial curve] | 3.98 µM [rising, partial curve] |
| CC1(C)NC(=O)N(CCOCCOc2cccc(Oc3ccccc3)c2)C1=O | 17.8 µM [rising, single point] | 11.2 µM [rising, partial curve] |
| CCCOc1ccc(/C=C2\SC(=S)N(CC3CCCO3)C2=O)cc1 (stereo unspecified) | 31.6 µM [rising, single point] | 12.6 µM [rising, partial curve, poor fit] |
| COc1ccc(CNc2ncnc3ccc(-c4ccc(C(=O)N(C)C)cc4)cc23)c(OC)c1 | 15.8 µM [falling, partial curve] | 11.2 µM [falling, partial curve] |
| O=C(COc1ccccc1Cl)Nc1ccc2nc(SCC(=O)N3CCOCC3)sc2c1 | 39.8 µM [falling, partial curve, poor fit] | – |
| CCC(=O)c1ccc(OCC(O)CN2CC(C)OC(C)C2)cc1 (stereo unspecified) | – | 0.398 µM [falling, full curve, poor fit] |
| CCCc1cc(=O)n2[nH]c(C(F)(F)F)nc2n1 | – | 0.141 µM [rising, full curve, poor fit] |
| CCOc1cccc(/C=N/Nc2ccc(S(=O)(=O)N(CC)CC)cn2)c1O | 12.6 µM [rising, partial curve] | 10 µM [rising, partial curve, poor fit] |
| O=C1COc2ccc(C(=O)CSc3nc4ccccc4c(=O)n3-c3ccc(Cl)c(Cl)c3)cc2N1 | 11.2 µM [falling, partial curve] | 10 µM [falling, partial curve, poor fit] |
| CCOC(=O)c1cc2[nH]c3ccccc3c2[n+](-c2ccc([N+](=O)[O-])cc2)c1C | 12.6 µM [rising, partial curve] | – |
| O=C(COc1ccccc1)Nc1ccc(Cl)c(-c2nc3ncccc3o2)c1 | 0.282 µM [rising, full curve, poor fit] | – |
| Cc1cc(C(F)(F)F)nc(CCNCc2c(C(=O)N3CCCC3)nc3ccccn23)n1 | – | 35.5 µM [falling, partial curve, poor fit] |
| CCCOc1ccc(C(=O)C(CCC(CNCC)C(=O)c2ccc(OCCC)cc2)CNCC)cc1 (stereo unspecified) | 20 µM [rising, single point] | 17.8 µM [rising, single point] |
| COC(=O)c1sccc1S(=O)(=O)N(CC(=O)Nc1cc(F)ccc1F)c1ccc(C)c(C)c1 | 17.8 µM [rising, partial curve, poor fit] | – |
| CCc1ccc(-c2[nH]nc3nc(-c4cc(OC)ccc4OC)cc(C(=O)O)c23)cc1 | 4.47 µM [rising, partial curve] | – |
| CCc1ccc(C(=O)/C=C/c2ccc([N+](=O)[O-])o2)cc1 | 17.8 µM [falling, partial curve] | 15.8 µM [falling, single point] |
| O=C(c1ccccc1-c1nc(-c2ccc(Cl)cc2)no1)N1CCCC1 | 11.2 µM [rising, partial curve] | – |
| CC(C)(C)Nc1nc(N2CCCC2)nc(N2CCCC2)n1 | 35.5 µM [falling, single point] | 12.6 µM [falling, partial curve] |
| Cc1cc(Nc2ccccc2)c2c([N+](=O)[O-])cc(C)c(C)c2n1 | 11.2 µM [rising, partial curve] | – |
| Cc1ccc(N/C=C/C(=O)c2sc(-c3ccccc3)nc2C)cc1 | 31.6 µM [rising, single point] | 17.8 µM [rising, single point] |
| Cn1c(N)c(C(=O)COC(=O)c2ccc3c(c2)C(=O)N(c2ccc(Cl)cc2)C3=O)c(=O)n(C)c1=O | 7.94 µM [falling, partial curve, poor fit] | – |

Entries of single compounds from above.
COc1ccc(CNc2ncnc3ccc(-c4ccc(C(=O)N(C)C)cc4)cc23)c(OC)c1 in the list: AC50 [1]: 15.8 µM [falling, partial curve]; AC50 [2]: 11.2 µM [falling, partial curve]
CCc1ccc(C(=O)/C=C/c2ccc([N+](=O)[O-])o2)cc1 in the list: AC50 [1]: 17.8 µM [falling, partial curve]; AC50 [2]: 15.8 µM [falling, single point]
CCC(=O)c1ccc(OCC(O)CN2CC(C)OC(C)C2)cc1 (stereo unspecified) in the list: AC50 [2]: 0.398 µM [falling, full curve, poor fit]
CCOC(=O)c1cnc(SCC(=O)Nc2cc(OC)cc(OC)c2)nc1N in the list: AC50 [1]: 10 µM [rising, partial curve]; AC50 [2]: 3.98 µM [rising, partial curve]
